{
  "source": "patent US8946173B2",
  "about": "“Cancer cell death inducing agent having effects of potentiating anticancer drug against anticancer-drug-resistant cancer” (Momotaro-Gene Inc., priority 2007, dated 2015)",
  "system": "JNK",
  "test": "Western blot of JNK activation / phosphorylated c-Jun",
  "type": "cell-based, human",
  "details": "1 μM SP600125 combined with Ad-REIC 100 MOI",
  "note": "At least one structure is not confirmed: it was looked up by name or label, or the drawing left a doubt.",
  "data": [
    {"compound": "Oc1c2ccccc2c2c3c(cccc13)N=N2", "note": "[SP600125]", "values": [
      {"measurement": "expression level of phosphorylated c-Jun", "value": "decreased"}
    ]}
  ]
}
